From the supplement of paper PMC12823440, “Inhibitors supercharge kinase turnover through native proteolytic circuits” (Nature, 2025)
Counter-ions that a name gives are not always drawn. Some of the results follow. The calls rarely recur for the same compound in another form.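 In K562 cells expressing nanoluciferase-fused kinases, luminescence was recorded at 4 h intervals between 2 and 18 h, normalized as percent of control with DMSO at 100% and a positive control at 0%. A significant (2 sigma) signal drop marks a time point as decreased. The authors' rule for a hit is not shown and takes in more than the number of time points.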

Amino acid sequences for entries named in this document (tags omitted).
UniProt Q00535, whole entry, looked up: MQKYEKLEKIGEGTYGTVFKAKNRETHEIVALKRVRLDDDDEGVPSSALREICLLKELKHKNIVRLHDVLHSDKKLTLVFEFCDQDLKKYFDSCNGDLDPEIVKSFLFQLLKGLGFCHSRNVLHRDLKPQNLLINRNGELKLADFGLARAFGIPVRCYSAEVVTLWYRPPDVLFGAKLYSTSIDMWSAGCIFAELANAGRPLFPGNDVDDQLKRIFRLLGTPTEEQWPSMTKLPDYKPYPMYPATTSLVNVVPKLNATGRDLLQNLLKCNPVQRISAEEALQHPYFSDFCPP

target: CDK5 (UniProt Q00535); assay: kinase-Nluc reporter destabilization hit call (1 = scored as downregulated) (binary); higher = compound decreases kinase abundance; conditions: K562; 2-18 h

kinase-Nluc reporter destabilization hit call, inactive:
O=c1cc(O)cc(/C=C/c2ccc(O)c(O)c2)o1 [Hispidin] (10 µM) 0
CC1CN(C(=O)Nc2ccc(Cl)c(Cl)c2)C(=Nc2ccc(F)cc2)S1 (stereo not drawn) (10 µM) 0
COc1cc2c[n+](C)c3c4cc5c(cc4ccc3c2cc1OC)OCO5 [Nitidine (chloride)] (2 µM) 0
Cc1c(CN2CCN(S(C)(=O)=O)CC2)sc2c(N3CCOCC3)nc(-c3cnc(N)nc3)nc12 (2.5 µM) 0
Cc1cc([C@H](C)Nc2ccccc2)c2oc(N3CCOCC3)cc(=O)c2c1 (10 µM) 0
O=C(CNC(=O)c1ccc(-c2ccccc2)cc1)NC1CCCc2ccccc21 (stereo not drawn) [TAO Kinase inhibitor 1] (10 µM) 0
Cn1cc(-c2ccc(CNc3cc(-c4cnc5cc(OCCCN6CCCC6)ccn45)ncn3)cc2)cn1 (10 µM) 0
Cc1ccc(S(=O)(=O)Nc2ccccc2C=Nc2ccccc2NS(=O)(=O)c2ccc(C)cc2)cc1 (10 µM) 0
O=C(/C=C/c1ccc(O)c(O)c1)c1ccc(O[C@@H]2O[C@H](CO)[C@@H](O)[C@H](O)[C@H]2O)c(O)c1O [Marein] (10 µM) 0
O=C(NCCCNc1nc(Nc2cccc(NC(=O)N3CCCC3)c2)ncc1I)c1cccs1 (2.5 µM) 0
CN(CCNc1ccc2ncc(-c3ccc(C(N)=O)cc3)n2n1)C(=O)OC(C)(C)C (10 µM) 0
C=C(C)C(=O)Nc1cccc(-c2ncnc3[nH]cc(C(=O)OCC)c23)c1 (10 µM) 0
COc1ccc(C(=C2C(=O)Nc3ccccc32)c2ccc(OC)cc2)cc1 (10 µM) 0
CN1CCN(c2ccc(C(=O)Nc3cc(-c4cccc(NS(=O)(=O)c5ccccc5)c4)[nH]n3)cc2)CC1 [BPR1J-097 Hydrochloride] (2.5 µM) 0
C=CC(=O)Nc1cc2c(Nc3ccc(OCc4ccccn4)c(Cl)c3)ncnc2cc1OCCN1CCOCC1 (10 µM) 0
Cc1c(NC(=O)OC[C@@H]2COCCN2)cn2ncnc(Nc3ccc4c(cnn4Cc4cccc(F)c4)c3)c12 (10 µM) 0
CNc1nc(Nc2cnn(C3CCN(C4COC4)CC3F)c2Cl)ncc1C(F)(F)F (stereo not drawn) (10 µM) 0
O=C(NCCO)c1ccc2c(c1)nc(Nc1cccc(Cl)c1)c1ccncc12 [CK2 inhibitor 2] (10 µM) 0
N#CC(c1ccnc(NCCc2cccnc2)n1)c1nc2ccccc2s1 (stereo not drawn) (10 µM) 0
CCN(CC)S(=O)(=O)c1ccc(OC)c(N2CCN(C(=O)c3ccc(F)cc3C(F)(F)F)CC2)c1 (10 µM) 0
CO[C@H]1C[C@@H]2CC[C@@H](C)[C@@](O)(O2)C(=O)C(=O)N2CCCC[C@H]2C(=O)O[C@H]([C@H](C)C[C@@H]2CC[C@@H](O)[C@H](OC)C2)CC(=O)[C@H](C)/C=C(\C)[C@@H](O)[C@@H](OC)C(=O)[C@H](C)C[C@H](C)/C=C/C=C/C=C/1C [Rapamycin] (10 µM) 0
CN(C)CCN(Cc1ccc(Cl)cc1)c1ccccn1 [Chloropyramine hydrochloride] (10 µM) 0
O=C(Nc1ccc(F)cc1F)[C@H](NC(=S)Nc1cc(C(F)(F)F)cc(C(F)(F)F)c1)c1ccccc1 (2.5 µM) 0
Cc1ccc(Nc2cc(-c3cccc(N4C(=O)c5ccccc5C4=O)c3)ncn2)cc1NS(C)(=O)=O (10 µM) 0
CC(C)(C)c1ccc(S(=O)(=O)Nc2ccc(-n3ccnc3)cc2)cc1 (10 µM) 0
CCc1cc(O)c(F)cc1-c1ccc2c(-c3nc4c([nH]3)CN(C3CCN(C)CC3)CC4)n[nH]c2c1 [JAK-IN-5 (hydrochloride)] (2 µM) 0
CC1=C2C(=O)O[C@@H](c3ccoc3)[C@]2(C)CCC1 [Fraxinellone] (10 µM) 0
COc1cc(C(N)=O)nc(-c2cccc(C#C[C@]3(O)CCN(C)C3=O)c2)c1 (10 µM) 0
COc1ncc(-c2nc(N3CCOCC3)nc3c(CN4CCC(C(C)(C)O)CC4)cc(F)cc23)cc1NS(C)(=O)=O [Linperlisib] (10 µM) 0
Fc1ccc(-c2nc(-c3ccccc3F)[nH]c2-c2ccncc2)cc1 (2.5 µM) 0
CC(C)=CC[C@H](O)C1=CC(=O)c2c(O)ccc(O)c2C1=O [(-)-Alkannin] (2.5 µM) 0
CC(C)c1cnc(-c2cc(Cl)ccc2F)cc1Nc1ccncc1C(=O)NC(CO)CO (2.5 µM) 0
Cn1cnc(-c2cc3nccc(Oc4ccc(NC(=S)NC(=O)Cc5ccccc5)cc4F)c3s2)c1 [MGCD-265 analog] (10 µM) 0
COC1(c2sc3c(N4CCOCC4)nc(-c4cnc(N)nc4)nc3c2C)COC1 (2.5 µM) 0
Cc1cc(NC(=O)c2cccc(NC(=O)/C=C/CN(C)C)c2)ccc1Nc1nccc(-c2cccnc2)n1 (10 µM) 0
O=C(/C=C/c1ccc(O)c(O)c1)OC1CC(OC(=O)/C=C/c2ccc(O)c(O)c2)(C(=O)O)CC(O)C1O (stereo not drawn) [1,3-Dicaffeoylquinic acid] (10 µM) 0
COc1ccc2c(c1O)OC(C)(C)c1c-2ccc2c1C(=O)N(c1ccc(C(=O)c3ccccc3)cc1)C2=O [Ampkinone] (10 µM) 0
CNC(=O)Nc1ccc(-c2cc(-c3ccnc(Nc4ccc(C)c(S(=O)(=O)N(C)C)c4)n3)ccn2)cc1 [hSMG-1 inhibitor 11e] (2.5 µM) 0

Arranged by count of non-hydrogen atoms (descending): three of the compounds above
kinase-Nluc reporter destabilization hit call, inactive:
COc1ccc2c(c1O)OC(C)(C)c1c-2ccc2c1C(=O)N(c1ccc(C(=O)c3ccccc3)cc1)C2=O [Ampkinone] (10 µM) 0
Cc1ccc(Nc2cc(-c3cccc(N4C(=O)c5ccccc5C4=O)c3)ncn2)cc1NS(C)(=O)=O (10 µM) 0
Cc1c(CN2CCN(S(C)(=O)=O)CC2)sc2c(N3CCOCC3)nc(-c3cnc(N)nc3)nc12 (2.5 µM) 0
